# Test results as given in US7816407B2, “Agmatine and agmatine analogs in the treatment of epilepsy, seizure, and electroconvulsive disorders” (University of Kentucky Research Foundation, priority 2000, dated 2010).
# For at least one compound, name, drawing or mass did not settle the structure.
# System: MES-induced seizure spread (hindlimb tonic extension)
# Assay: Maximal Electroshock Seizure (MES) test
# Type: in vivo, rat
# Settings: oral 30 mg/kg, shock 1 hour after administration
# Source text: The MES is an experimental model for generalized tonic-clonic seizures that identifies compounds which prevent seizure spread. The MES model is highly reproducible and has a consistent endpoint. An advantage of this model is that the behavioral and electrographic seizures are consistent with those observed in humans (Levy, R. H., Antiepileptic drugs. 3rd Ed. 1989, New York: Raven Press. xxvii, 1025. p. 85-102).
# In the MES test, the animal receives an electrical stimulus, 0.2 seconds in duration, via corneal electrodes primed with an electrolyte solution containing an anesthetic agent. The 0.2 second stimulation is generated with 150 mA in rats at 60 Hz. Twenty rats, weighing between 105 g and 130 g receive an electrical stimulus 15 minutes, 30 minutes, 1 hour, 2 hours, 4 hours, 8 hours and 12 hours after oral administration of a dose of about 30 mg/kg of agmatine in phosphate buffered in saline per kg of the animal. The test endpoint, electrogenic seizure, is manifested as hindlimb tonic extension.
structure (smiles),measurement,value
"NCCCCN=C(N)N [agmatine, 4-aminobutylguanidine]",rats protected from MES-induced seizure spread,none of the rats were protected
